Results from patent publication US8252774B2, “5-azaindole bisphosphonates” (Isis Innovation Ltd., priority 2008, dated 2012).

Assay: HAP affinity: chromatographic profiling on hydroxyapatite column (FPLC)
Assay type: physicochemical
Details: phosphate buffer gradient 1 mM up to 1000 mM, pH 6.8, determined in triplicate, longer retention = higher mineral affinity
Description: Mineral affinity for hydroxyapatite was evaluated by chromatographic profiling of the novel bisphosphonate compounds. Hydroxyapatite (HAP) ceramic spheres (20 μm diameter, BioRad) were packed in a 0.66×6.5 cm glass column (Omnifit®). The HAP columns were attached to a Waters 650E Advanced Protein Purification System (FPLC) (Millipore) in a running buffer of 1 mM KPO3 at pH 6.8. Each compound was prepared in 1 mM KPO3 buffer at pH 6.8 and 400 μmoles were injected into the FPLC system. The bisphosphonate compounds were eluted in a gradient of phosphate buffer, concentration increasing from 1 mM up to 1000 mM and detected by a Waters 484 UV absorbance detector (Millipore) at their optimum wavelength. […] Longer retention times (minutes) correspond with higher affinity to the HAP sphere and, correspondingly, higher mineral affinity.

- Retention time: 17.5 min
Compound: NCCCC(O)(P(=O)(O)O)P(=O)(O)O [Alendronate]
